Experimental data: publication doi:10.1101/2023.08.11.553045
These are yes or no findings as the source states them, for the method shown. In cells and extracts the contact can be indirect. Some entries that bind do so weakly or less than the wild type. Sequences can lack the tags named with a protein.

Protein sequences, listed by entry. Tags and fused reporters are not part of them. Lines headed by an entry give the natural chain unless they say otherwise; changes in a name come on top.
UniProt Q86WV6: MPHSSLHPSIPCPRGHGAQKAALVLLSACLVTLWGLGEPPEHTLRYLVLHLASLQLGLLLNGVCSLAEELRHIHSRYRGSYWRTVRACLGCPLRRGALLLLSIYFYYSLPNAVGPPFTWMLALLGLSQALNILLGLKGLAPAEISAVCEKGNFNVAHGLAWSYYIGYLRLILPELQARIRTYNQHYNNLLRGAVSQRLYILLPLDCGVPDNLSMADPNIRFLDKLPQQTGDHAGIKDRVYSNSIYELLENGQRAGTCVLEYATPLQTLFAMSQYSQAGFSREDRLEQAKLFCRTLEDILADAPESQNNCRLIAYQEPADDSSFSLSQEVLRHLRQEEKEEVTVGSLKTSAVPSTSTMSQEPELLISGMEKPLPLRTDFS

Molecular target: T1, CTT7-FLAG (expressed in cells) (human)
T1 sequence: MEKPLPL
Test: co-IP

Substance	binding
STING Q273A/A277Q (STING-AQ) (from UniProt Q86WV6 1-379)	binds
human STING, wild type (WT-STING) (from UniProt Q86WV6 1-379)	binds
